In the assay the target is T1, endogenous Caspr1 in HBMECs (human (endogenous in HBMECs)) (UniProt P78357).
T1 sequence: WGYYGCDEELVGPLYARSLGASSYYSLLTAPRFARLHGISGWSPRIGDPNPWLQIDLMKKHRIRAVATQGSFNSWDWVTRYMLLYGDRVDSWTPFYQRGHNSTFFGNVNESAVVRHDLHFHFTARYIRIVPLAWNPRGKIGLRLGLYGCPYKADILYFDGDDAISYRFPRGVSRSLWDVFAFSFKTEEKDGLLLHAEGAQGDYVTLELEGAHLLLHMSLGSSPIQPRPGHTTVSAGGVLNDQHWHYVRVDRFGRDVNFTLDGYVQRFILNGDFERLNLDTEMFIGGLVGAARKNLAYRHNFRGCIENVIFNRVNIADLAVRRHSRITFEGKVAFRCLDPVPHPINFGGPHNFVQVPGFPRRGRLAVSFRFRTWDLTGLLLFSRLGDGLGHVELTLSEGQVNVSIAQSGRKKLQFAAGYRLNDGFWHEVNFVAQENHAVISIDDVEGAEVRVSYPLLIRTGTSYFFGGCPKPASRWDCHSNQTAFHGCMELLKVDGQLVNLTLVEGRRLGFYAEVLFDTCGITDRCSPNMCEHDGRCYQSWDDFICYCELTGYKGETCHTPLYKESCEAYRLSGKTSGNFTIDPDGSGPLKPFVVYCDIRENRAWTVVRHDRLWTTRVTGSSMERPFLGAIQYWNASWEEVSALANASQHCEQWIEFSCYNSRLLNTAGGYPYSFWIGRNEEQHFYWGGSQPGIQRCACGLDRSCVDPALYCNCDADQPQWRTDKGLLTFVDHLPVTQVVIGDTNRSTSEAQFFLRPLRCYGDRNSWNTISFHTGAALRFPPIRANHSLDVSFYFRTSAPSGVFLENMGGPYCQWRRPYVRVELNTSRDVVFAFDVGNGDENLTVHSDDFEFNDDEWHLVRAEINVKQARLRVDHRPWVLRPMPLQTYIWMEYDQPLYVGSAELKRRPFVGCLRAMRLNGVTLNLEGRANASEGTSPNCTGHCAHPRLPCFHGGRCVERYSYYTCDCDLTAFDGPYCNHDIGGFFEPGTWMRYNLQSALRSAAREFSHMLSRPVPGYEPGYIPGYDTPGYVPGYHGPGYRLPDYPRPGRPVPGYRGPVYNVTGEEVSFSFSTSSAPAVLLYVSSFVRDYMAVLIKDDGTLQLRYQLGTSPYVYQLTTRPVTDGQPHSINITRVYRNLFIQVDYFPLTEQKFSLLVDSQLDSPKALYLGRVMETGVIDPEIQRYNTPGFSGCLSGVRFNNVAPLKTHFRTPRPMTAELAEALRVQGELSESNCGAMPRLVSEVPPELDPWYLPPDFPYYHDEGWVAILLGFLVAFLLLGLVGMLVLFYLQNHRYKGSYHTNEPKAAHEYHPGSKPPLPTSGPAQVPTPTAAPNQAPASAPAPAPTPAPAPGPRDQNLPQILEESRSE
The assay can be described thus: co-IP.

The chains behind the UniProt entries cited, without tags or fusion partners.
UniProt Q05397: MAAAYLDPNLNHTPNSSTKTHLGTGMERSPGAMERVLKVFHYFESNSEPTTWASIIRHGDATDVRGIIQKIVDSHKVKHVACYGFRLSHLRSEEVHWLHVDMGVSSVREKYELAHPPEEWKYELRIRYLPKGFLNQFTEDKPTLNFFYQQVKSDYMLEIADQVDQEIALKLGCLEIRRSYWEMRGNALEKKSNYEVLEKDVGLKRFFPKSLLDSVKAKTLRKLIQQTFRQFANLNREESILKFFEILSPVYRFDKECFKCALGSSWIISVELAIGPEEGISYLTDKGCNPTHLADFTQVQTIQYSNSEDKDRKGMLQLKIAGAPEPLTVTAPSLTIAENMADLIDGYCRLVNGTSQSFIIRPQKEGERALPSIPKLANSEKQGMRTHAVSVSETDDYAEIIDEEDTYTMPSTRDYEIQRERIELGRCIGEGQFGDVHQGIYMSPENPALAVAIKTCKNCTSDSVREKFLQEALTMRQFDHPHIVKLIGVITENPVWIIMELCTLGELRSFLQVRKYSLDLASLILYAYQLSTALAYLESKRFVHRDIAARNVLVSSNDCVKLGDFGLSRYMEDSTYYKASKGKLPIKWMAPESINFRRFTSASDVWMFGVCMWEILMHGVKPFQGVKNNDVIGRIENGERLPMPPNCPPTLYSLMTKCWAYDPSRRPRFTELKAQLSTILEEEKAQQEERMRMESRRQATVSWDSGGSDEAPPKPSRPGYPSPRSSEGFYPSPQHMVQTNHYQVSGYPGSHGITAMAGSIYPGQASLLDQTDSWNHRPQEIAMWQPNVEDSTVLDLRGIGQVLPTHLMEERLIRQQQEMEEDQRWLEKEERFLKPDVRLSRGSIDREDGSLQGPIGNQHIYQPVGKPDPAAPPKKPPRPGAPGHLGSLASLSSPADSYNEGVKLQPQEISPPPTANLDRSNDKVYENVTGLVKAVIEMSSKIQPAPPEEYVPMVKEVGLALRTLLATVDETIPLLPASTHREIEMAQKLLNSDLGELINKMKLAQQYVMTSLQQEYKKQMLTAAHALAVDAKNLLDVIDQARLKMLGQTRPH

These are yes or no findings as the source states them, for the method shown. In cells and extracts the contact can be indirect. Some results given as binding are weak or reduced against the parent protein; the word gives no strength.

These results are taken from paper PMC5997682.

Turning to “focal adhesion kinase (FAK), endogenous in HBMECs (from UniProt Q05397 1-1052) (enzyme)”, the binding entry is reported as “binds”.
